Measurements as given in publication PMC12040169 (PLOS Biology, 2025).
Some of the results follow.

System: T1, CTL2-GFP (C. trachomatis L2/434/Bu, GFP-expressing)
T1 construct: L2/434/Bu, GFP-expressing
Parameters: species or system HeLa; Intracellular C. trachomatis growth in HeLa cells, bulk GFP fluorescence relative to DMSO
Conditions: bulk GFP, single well; 28.5 h, 10 µM; inhibitor

SMILES | % of control remaining [%]
Cn1c2c(ccc1=O)CCCCC2 [CBK005987] | 128.782
CNC(=O)C1(Cc2ccccc2-c2ccccc2)CCN(C(=O)Cc2ccc(C)cc2)CC1 [CBK286274] | 109.276
Cc1cccc(CNc2nccnc2-c2ccncc2)c1 [CBK037453] | 104.18
CC(C)OC(=O)N1CCC(C(=O)NC(c2ccccc2)c2ccc3ccccc3n2)CC1 (centres unmarked) [CBK059642] | 158.894
CNCCc1nc(-c2ccc(F)cc2)c2cnccn12 [CBK035927] | 204.321
O=C(O)C1Cc2ccccc2CN1C(=O)c1ccccc1 (centres unmarked) [CBK286628] | 97.8958
FC(F)(F)c1ccc(N2CCNCC2)nc1OCCOc1ccc2ccccc2c1 [CBK200002A] | 61.7688
NC(=O)c1c(NC(=O)c2nc3ccccc3s2)sc2c1CCCCC2 [CBK287566] | 127.921
Clc1cncc(OCCCCOc2ccccc2)n1 [CBK176018] | 87.605
CC(=O)Nc1ccc(S(=O)(=O)NCc2ccc3[nH]c4c(c3c2)CCCC4)cc1 [CBK267122] | 163.048
CCc1cc2cc3c(cc2nc1SCC(=O)Nc1nc(C)c(C)s1)OCO3 [CBK108548] | 100
COc1cccc(CNCc2ccccc2[N+](=O)[O-])c1OC [CBK262198] | 89.6634
Cc1cc(C(=O)N2CCN(C(=O)c3ccco3)CC2)n[nH]1 [CBK144447] | 103.775
Cc1ccccc1-n1nc(C)c(CN2CCC(O)C(C)C2)c1C (centres unmarked) [CBK282739] | 134.663
Cc1cc(NS(=O)(=O)c2ccc(NC(=O)c3ccc(Br)cc3)cc2)no1 [CBK265371] | 116.892
COc1ccc(OCC(=O)Nc2cccc(-c3nnc4c5ccccc5c(C)nn34)c2)cc1 [CBK266743] | 127.559
Cc1nn(CCC(=O)NC(C)Cc2ccccn2)c(C)c1Cl (centres unmarked) [CBK281419] | 115.104
N#Cc1ccccc1C(=O)N(CCO)Cc1ccccc1 [CBK304844] | 114.464
Cc1ccc(N(Cc2ccco2)C(=O)c2cccc(S(=O)(=O)N3CCOCC3)c2)cc1 [CBK265857] | 120.242
CO[C@@]12CC[C@@H](OCC3CC3)C[C@@H]1N(Cc1c(C)cnn1C)CC2 [CBK307072] | 154.629
CC(=O)c1ccccc1-c1ccc(C(=O)NCCc2ccccn2)c(NCC2CC2)n1 [CBK076580] | 86.874
CCN1CCN(c2ncnc3c2cnn3-c2cccc(C)c2)CC1 [CBK265814] | 194.856
CCn1c(SCC(=O)Nc2ccc(C(=O)O)cc2)nnc1-c1ccccc1C [CBK265927] | 97.8652
O=C(c1ccccn1)N1CCCC(n2cnc3cc(F)ccc32)C1 (centres unmarked) [CBK284476] | 126.58
COc1ccc(F)cc1S(=O)(=O)Nc1cccc(C)n1 [CBK268842] | 128.815

Pulled by structure from the list above, 3 records:
SMILES | % of control remaining [%]
CC(C)OC(=O)N1CCC(C(=O)NC(c2ccccc2)c2ccc3ccccc3n2)CC1 (centres unmarked) [CBK059642] | 158.894
CCn1c(SCC(=O)Nc2ccc(C(=O)O)cc2)nnc1-c1ccccc1C [CBK265927] | 97.8652
CNCCc1nc(-c2ccc(F)cc2)c2cnccn12 [CBK035927] | 204.321

Next structures follow.

SMILES | % of control remaining [%]
O=C1CCCN1CCOc1nccnc1/C=C/c1ccccc1 [CBK106875] | 124.395
COC(=O)c1ccc(NC(=S)N2CCC(C(N)=O)CC2)cc1 [CBK267232] | 140.605
CSc1oc(-c2ccccc2)nc1C(N)=O [CBK067744] | 111.404
Cc1ccc2[nH]c3c(c2c1)CCNC31CCN(C(=O)CC(C)CC(=O)O)CC1 (centres unmarked) [CBK047196] | 169.878
O=C(O)c1snnc1-c1ccccc1 [CBK021545] | 139.357
COc1ccc(S(=O)(=O)Nc2ccc3oc(-c4ccccc4F)cc(=O)c3c2)cc1 [CBK300518] | 91.8193
CCOC(=O)C(NC(=O)CCn1ccc2ccncc21)C(C)C (centres unmarked) [CBK284719] | 130.545
CCC(c1cccnc1)N(C)C(=O)c1ccc(=O)n(C)c1 (centres unmarked) [CBK306802] | 109.226
O=C(CC1c2ccccc2Oc2ccccc21)N1CCc2nc3ccccc3c(=O)n2CC1 [CBK286314] | 102.22
C=CCn1c(Cc2csc(NC(=O)CCc3nc4ccccc4c(=O)[nH]3)n2)n[nH]c1=S [CBK297888] | 135.333
Cc1nc(C(=O)N2CCn3nc(C(O)c4ccccc4)cc3C2)c(C)s1 (centres unmarked) [CBK307474] | 141.304
O=C(NCCCc1ccccn1)c1cc(C2CCCCC2)no1 [CBK283296] | 127.614
CN(Cc1cccnc1)C(=O)CSC(c1ccccc1)c1ccccc1 [CBK298284] | 136.528
O=C1Cc2ccccc2C2(CCN(C(=O)NCc3cccc(F)c3)CC2)N1 [CBK047288] | 102.388
c1cncc(COc2ccnc(N3CCCN(CCN4CCOCC4)CC3)n2)c1 [CBK084122] | 87.983
CC(=O)c1ccc(NC(=O)N2Cc3nc[nH]c3C[C@H]2c2nc(-c3ccc(C)cc3)no2)cc1 [CBK288959] | 102.748
CCOC(=O)c1cccnc1-c1cc2ccccc2o1 [CBK149237] | 137.972
Cc1ccc(S(=O)(=O)N2/C(=C\COc3ccc(Cl)cc3Cl)C(N3CCOCC3)c3ccccc32)cc1 (centres unmarked) [CBK262740] | 120.933
O=C(NC(c1ccccn1)c1cccs1)C1CCN(S(=O)(=O)c2ccc(C(F)(F)F)cc2)CC1 (centres unmarked) [CBK060153] | 120.709
COc1cccc(OCCN2CCC3(C2)NCCc2c3[nH]c3cc(OC)ccc23)c1 (centres unmarked) [CBK061794] | 110.935
CN1C(=O)c2cccc3c(S(=O)(=O)Nc4ccc(C(=O)O)c(O)c4)ccc1c23 [CBK299799] | 97.4772
Cc1cc(Cl)c(S(=O)(=O)N2CCN(c3ccccn3)CC2)cc1OCC(N)=O [CBK266553] | 81.0748
Cc1occc1C(=O)Nc1cnn(CCCC(=O)O)c1 [CBK270116] | 109.081
C#CCN1N=C(c2ccc(OC)cc2)Cn2c(cc3sccc32)C1=O [CBK284209] | 118.773
CC(Oc1ccccc1)C(=O)Nc1ccc(-c2csc(-c3ccccc3)n2)cc1 (centres unmarked) [CBK268855] | 98.3421
